Percent effect of library compounds

The filed quantity is “Percent Effect” (%). The controls that fix the scale are not given in the record; negative values are as filed. This is an unselected part of the compounds tested. Two or more numbers in one place are separate tests of the same structure; such repeats can differ widely.

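Phenotypic screen: M. tuberculosis growth, glucose 7H9 medium, 3 days; the read-out is not stated. Tested at 50 µM. Higher reads as more growth inhibition (inferred: compounds with an IC50 in retests scored well above the rest). Of about 69,000 compounds tested this way, about 760 (1.1%) reached 50% or more in at least one test.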

Compound | percent effect
Cc1nn(C)c(C)c1C(=O)NCc1ccnc(OCC(F)(F)F)c1 | -0.1498
CCc1nc(NCC(=O)N2CCOCC2)c2c(n1)c(C)nn2CC | -12.71
O=C(Nc1cccnc1-n1cccn1)N1CCCC(N2CCCC2)C1 (centres unmarked) | -6.435
CCOCC(=O)N1CCC(Oc2ccc(Cl)cn2)CC1 | 23.32
Cc1ccc(C#N)c(N2CCC(c3nccn3Cc3cscn3)CC2)n1 | 20.52
CC1CCCN(CCNC(=O)c2ccn(-c3ccccc3)n2)C1 (centres unmarked) | -2.261
CCOCC1CN(C(=O)c2cscn2)Cc2cnn(CC3CC3)c21 (centres unmarked) | -12.86
C=Cn1ncc(CN2CCc3nc(-c4ccncc4)nc(O)c3C2)c1C | 24.7
Cc1cccc(N2CCC3(CCCN3Cc3cnn(C)c3C)CC2)n1 | -2.489
CN1CC(=O)N(c2ccccc2)CC12CCN(Cc1cccnc1)C2.O=C(O)C(F)(F)F.O=C(O)C(F)(F)F.O=C(O)C(F)(F)F (centres unmarked) | 3.303
CCn1nc(C)c(CN(CCOC)C(=O)c2ccc(=O)[nH]n2)c1C | -11.28
COc1ccc(C(=O)NCCCNc2ncccn2)cc1F | -2.613
O=C(CCn1ccnc1)N1CCCC(n2cncn2)C1 (centres unmarked) | -31.12
Cc1cn2nc(N3CCCC3C(=O)N3CCN(C)CC3)sc2n1 (centres unmarked) | -35.45
CC(C)C(=O)NC1COC2(CCN(C(=O)c3ccc[nH]3)CC2)C1 (centres unmarked) | 2.14
CC/N=c1\nc(NCC)nc2n1C(O)(Nc1cc(Cl)ccc1Cl)CS2 (centres unmarked) | -24.78
Cc1n[nH]c(C2CN(CCCOc3cccc(Cl)c3)CCO2)n1 (centres unmarked) | 0.4011
Cc1cccc(CC(=O)NCCCOC(C)C)c1 | -1.913
CCCc1nc(C)c(C(=O)NCC2CCN(C3CC3)C2)s1 (centres unmarked) | -34.12
CCC(O)CN1CCN(C(=O)c2sccc2C(C)C)CC1 (centres unmarked) | -14.7
Cc1nc(C2CCCN(C(=O)c3cccc(S(C)(=O)=O)c3)C2)no1 (centres unmarked) | 26.47
Cc1c[nH]nc1C1CCCCN1C(=O)CNS(C)(=O)=O (centres unmarked) | -27.84
CN1CC(C(=O)NCCc2ccc(Br)cc2F)CC1=O (centres unmarked) | -4.102
COCC(=O)NCc1cc(=O)n2c(n1)CN(Cc1ccncc1)CCC2 | 20.85
O=C(Cc1ccsc1)N1CCOC(c2nc(-c3ncccn3)no2)C1 (centres unmarked) | 18.99
CCc1cnc(CN2C(=O)CC3(CCSC3)C2=O)o1 (centres unmarked) | 3.987 & -2.893
CN(C)c1cc(CNC(=O)c2cccc(F)c2)ccn1 | -2.409
[H][C@@]12CN(Cc3cccnc3)CCO[C@]1([H])CN(C(=O)c1ccncn1)C2 | 2.811
CS(=O)(=O)c1ccc(NC(=O)NCc2ccc(F)cc2)cn1 | 21.97
CC(C)c1nn(CC(=O)N2CCCC2)c(=O)c2c1cnn2C(C)(C)C | 0.1162
CCc1noc(C)c1C(=O)N1C[C@H](NS(C)(=O)=O)[C@@H](C2CC2)C1 | -8.488
O=C(O)C(F)(F)F.O=C1CC(c2ccncc2)C2(CCN(C(=O)c3cccc(F)c3)CC2)N1 (centres unmarked) | -25.48
COc1ncccc1CN1CCC2(CC1)CC(OCC1CC1)CO2.O=C(O)C(F)(F)F (centres unmarked) | -17.74
CS(=O)(=O)N[C@H]1CCO[C@]2(CCN(CC3CCOCC3)C2)C1.O=C(O)C(F)(F)F | -25.72
CC(OCc1ccccc1)C(=O)NCc1ccc(N(C)C)cc1 (centres unmarked) | 26.24
O=C(c1ccccc1O)N1CCN(C(=O)C2CCC2)CC1 | -1.951
Cc1cc2nc(C(C)C)cc(NCCc3ccncc3)n2n1 | 11.74
COCCNC(=O)c1cc(-c2ccc3c(c2)CCO3)n[nH]1 | 17.16
Cc1cc(C(=O)Nc2cc(C3CC3)n[nH]2)c2c(C)nn(C)c2n1 | 6.393
Cc1ccccc1S(=O)(=O)N[C@@H]1CC[C@@H](N2CCNC(=O)C2)[C@@H]1O | 6.531
CCN1CCN(C(=O)c2c[nH]c(C(C)C)n2)c2ccccc21 | 4.349 & -8.705
O=C(c1ccc2c(c1)OCCCO2)N1CCCCC1C1OCCO1 (centres unmarked) | 15.27
O=C(CCNc1ncccn1)N1CCCC(n2ccnc2)C1 (centres unmarked) | -7.759
Cc1cccc(CN2CCCC2c2cccc(Nc3nccs3)n2)c1 (centres unmarked) | 18.86
CCN(CC)C(=O)c1ccc(CNc2ncc(C#N)cc2Cl)cc1 | -27.82
CC(CNC(=O)Nc1ccc(F)cc1-n1cccc1)N1CCOCC1 (centres unmarked) | 12.21
CCc1c(C(=O)N2CCC3(CC(=O)NC3=O)C2)csc1C (centres unmarked) | 11.09
O=S(=O)(NC1=NCN(CCc2cccs2)CN1)c1ccc(Cl)cc1 | 5.383
CSc1sc2c(O)cc(=O)[nH]c2c1C(N)=O | 11.09
CN(C)CCN(C(=O)Cc1ccc2c(c1)OCCO2)C1CCN(C)CC1.O=C(O)CC(O)(CC(=O)O)C(=O)O | 18.02
O=C(O)C(F)(F)F.[H][C@]12C[C@H](C(=O)NC)N(C(C)=O)[C@@]1([H])CN(Cc1c(C)noc1C)C2 | -5.231
Cc1ccc(CN2CC[C@@H](NS(C)(=O)=O)[C@@H]2Cc2ccncc2)o1.O=C(O)C(F)(F)F.O=C(O)C(F)(F)F | 11.64 & -7.007
COCCn1nc(C(=O)N2CCCC2c2cccc(F)c2)ccc1=O (centres unmarked) | 19.19
[H][C@]12CN(Cc3cc(F)cc(F)c3)CC[C@@]1(O)CCN(S(=O)(=O)N(C)C)C2 | -43.83
Cc1csc(C(C#N)C(=O)NCc2ccccc2)n1 (centres unmarked) | -4.159
COc1ccc(C)cc1C(C)NC(=O)NCCCn1cncn1 (centres unmarked) | 9.78
CN(C)CCN1CCN(Cc2ccco2)Cc2cccnc21.O=C(O)C(F)(F)F.O=C(O)C(F)(F)F.O=C(O)C(F)(F)F | 7.742

From ChEMBL document CHEMBL3988442, “University of Dundee, Small-Polar-MMV Screening Library” (2021).